Measurements: PMC3874760
These are yes or no findings as the source states them, for the method shown. Some entries that bind do so weakly or less than the wild type.

Sequences of proteins named here, by UniProt entry; tags and fusion partners are left off.
UniProt O14776: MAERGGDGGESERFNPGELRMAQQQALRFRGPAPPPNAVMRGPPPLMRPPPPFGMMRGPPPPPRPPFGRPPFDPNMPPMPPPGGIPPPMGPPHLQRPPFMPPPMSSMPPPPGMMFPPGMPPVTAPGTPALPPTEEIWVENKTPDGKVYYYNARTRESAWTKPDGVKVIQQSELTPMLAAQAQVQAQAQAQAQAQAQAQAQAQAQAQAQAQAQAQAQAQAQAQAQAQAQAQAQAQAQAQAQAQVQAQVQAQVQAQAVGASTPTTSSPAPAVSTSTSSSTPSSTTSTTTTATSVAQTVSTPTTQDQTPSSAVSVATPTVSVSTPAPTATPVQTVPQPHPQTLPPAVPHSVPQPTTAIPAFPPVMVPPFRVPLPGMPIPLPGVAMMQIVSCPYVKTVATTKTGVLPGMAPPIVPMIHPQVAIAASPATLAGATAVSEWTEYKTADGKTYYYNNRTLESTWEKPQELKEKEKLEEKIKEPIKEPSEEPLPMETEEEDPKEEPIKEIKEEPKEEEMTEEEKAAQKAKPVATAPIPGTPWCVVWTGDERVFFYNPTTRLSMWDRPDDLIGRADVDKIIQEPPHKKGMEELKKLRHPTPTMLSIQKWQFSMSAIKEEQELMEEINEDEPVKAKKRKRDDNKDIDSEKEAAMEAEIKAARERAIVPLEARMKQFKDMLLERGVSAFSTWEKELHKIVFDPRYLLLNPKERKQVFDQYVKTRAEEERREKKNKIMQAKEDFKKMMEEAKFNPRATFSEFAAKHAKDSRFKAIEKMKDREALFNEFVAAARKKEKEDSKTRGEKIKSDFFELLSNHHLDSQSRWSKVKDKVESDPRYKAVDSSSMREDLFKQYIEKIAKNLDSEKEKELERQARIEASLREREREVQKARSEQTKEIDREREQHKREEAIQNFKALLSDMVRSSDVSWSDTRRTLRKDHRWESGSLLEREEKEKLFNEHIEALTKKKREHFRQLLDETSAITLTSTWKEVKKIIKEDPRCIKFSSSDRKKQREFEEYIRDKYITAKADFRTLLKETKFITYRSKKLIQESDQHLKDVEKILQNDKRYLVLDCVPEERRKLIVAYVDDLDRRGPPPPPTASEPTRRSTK

Molecular target: TCERG1, bait of the tandem affinity purification (TAP) (UniProt O14776)
Assay: tandem affinity purification (TAP); TCERG1 as bait; data not shown, no conditions told

B1: ELL (protein, UniProt P55199 1-621)
chain: MAALKEDRSYGLSCGRVSDGSKVSVFHVKLTDSALRAFESYRARQDSVSLRPSIRFQGSQGHISIPQPDCPAEARTFSFYLSNIGRDNPQGSFDCIQQYVSSHGEVHLDCLGSIQDKITVCATDDSYQKARQSMAQAEEETRSRSAIVIKAGGRYLGKKVQFRKPAPGATDAVPSRKRATPINLASAIRKSGASAVSGGSGVSQRPFRDRVLHLLALRPYRKAELLLRLQKDGLTQADKDALDGLLQQVANMSAKDGTCTLQDCMYKDVQKDWPGYSEGDQQLLKRVLVRKLCQPQSTGSLLGDPAASSPPGERGRSASPPQKRLQPPDFIDPLANKKPRISHFTQRAQPAVNGKLGVPNGREALLPTPGPPASTDTLSSSTHLPPRLEPPRAHDPLADVSNDLGHSGRDCEHGEAAAPAPTVRLGLPLLTDCAQPSRPHGSPSRSKPKKKSKKHKDKERAAEDKPRAQLPDCAPATHATPGAPADTPGLNGTCSVSSVPTSTSETPDYLLKYAAISSSEQRQSYKNDFNAEYSEYRDLHARIERITRRFTQLDAQLRQLSQGSEEYETTRGQILQEYRKIKKTNTNYSQEKHRCEYLHSKLAHIKRLIAEYDQRQLQAWP
binding: binds
